The list shows a part of the results.

Sequences of proteins named here, by UniProt entry; tags and fusion partners are left off. A change or cut given only in a name is not applied to a line headed by its entry.
UniProt P28340: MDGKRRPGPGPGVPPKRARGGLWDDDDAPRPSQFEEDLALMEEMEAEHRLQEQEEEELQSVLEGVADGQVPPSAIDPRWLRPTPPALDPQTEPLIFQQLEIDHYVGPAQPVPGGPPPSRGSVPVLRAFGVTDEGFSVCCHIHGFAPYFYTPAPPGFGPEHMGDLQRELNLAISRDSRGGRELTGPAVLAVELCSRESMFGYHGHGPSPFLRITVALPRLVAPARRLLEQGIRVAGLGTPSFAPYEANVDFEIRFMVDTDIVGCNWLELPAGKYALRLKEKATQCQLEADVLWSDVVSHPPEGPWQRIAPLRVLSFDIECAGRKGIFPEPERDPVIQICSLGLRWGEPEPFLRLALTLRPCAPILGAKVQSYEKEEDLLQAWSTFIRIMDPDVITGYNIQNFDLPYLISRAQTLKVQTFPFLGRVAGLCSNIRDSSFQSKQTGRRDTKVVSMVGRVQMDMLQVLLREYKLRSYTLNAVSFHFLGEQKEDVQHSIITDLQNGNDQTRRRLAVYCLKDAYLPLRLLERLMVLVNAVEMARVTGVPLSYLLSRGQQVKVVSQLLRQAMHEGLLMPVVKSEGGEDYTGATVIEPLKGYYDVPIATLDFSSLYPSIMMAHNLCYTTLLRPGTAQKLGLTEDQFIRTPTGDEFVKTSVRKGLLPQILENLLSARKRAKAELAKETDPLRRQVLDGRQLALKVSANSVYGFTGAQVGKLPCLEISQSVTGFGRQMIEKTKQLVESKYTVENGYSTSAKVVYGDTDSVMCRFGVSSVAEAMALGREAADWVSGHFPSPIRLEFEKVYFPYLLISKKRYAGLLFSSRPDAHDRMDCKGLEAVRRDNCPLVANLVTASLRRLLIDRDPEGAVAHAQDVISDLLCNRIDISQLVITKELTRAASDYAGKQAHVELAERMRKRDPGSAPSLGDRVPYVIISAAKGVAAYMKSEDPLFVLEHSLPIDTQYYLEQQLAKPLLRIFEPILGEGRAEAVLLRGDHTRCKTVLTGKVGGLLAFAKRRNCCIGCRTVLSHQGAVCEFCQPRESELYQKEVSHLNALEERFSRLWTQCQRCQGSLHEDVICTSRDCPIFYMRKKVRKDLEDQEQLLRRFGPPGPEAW
UniProt P0DPB6, whole entry, looked up: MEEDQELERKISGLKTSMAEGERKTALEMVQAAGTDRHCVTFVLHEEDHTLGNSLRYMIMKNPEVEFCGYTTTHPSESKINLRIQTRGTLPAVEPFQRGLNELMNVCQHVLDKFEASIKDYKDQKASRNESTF
UniProt Q8N490: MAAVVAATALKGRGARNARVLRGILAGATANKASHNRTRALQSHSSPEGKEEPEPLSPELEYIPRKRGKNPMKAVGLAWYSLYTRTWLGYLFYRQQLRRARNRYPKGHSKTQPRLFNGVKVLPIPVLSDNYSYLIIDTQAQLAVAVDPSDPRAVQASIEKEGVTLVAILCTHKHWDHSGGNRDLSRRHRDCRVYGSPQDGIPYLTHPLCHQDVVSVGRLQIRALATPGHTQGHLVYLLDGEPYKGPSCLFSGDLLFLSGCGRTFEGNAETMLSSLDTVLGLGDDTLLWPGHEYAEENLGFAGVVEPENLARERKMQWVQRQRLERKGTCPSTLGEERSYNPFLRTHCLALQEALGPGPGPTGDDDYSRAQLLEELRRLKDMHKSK
UniProt Q9H9Y6, whole entry, looked up: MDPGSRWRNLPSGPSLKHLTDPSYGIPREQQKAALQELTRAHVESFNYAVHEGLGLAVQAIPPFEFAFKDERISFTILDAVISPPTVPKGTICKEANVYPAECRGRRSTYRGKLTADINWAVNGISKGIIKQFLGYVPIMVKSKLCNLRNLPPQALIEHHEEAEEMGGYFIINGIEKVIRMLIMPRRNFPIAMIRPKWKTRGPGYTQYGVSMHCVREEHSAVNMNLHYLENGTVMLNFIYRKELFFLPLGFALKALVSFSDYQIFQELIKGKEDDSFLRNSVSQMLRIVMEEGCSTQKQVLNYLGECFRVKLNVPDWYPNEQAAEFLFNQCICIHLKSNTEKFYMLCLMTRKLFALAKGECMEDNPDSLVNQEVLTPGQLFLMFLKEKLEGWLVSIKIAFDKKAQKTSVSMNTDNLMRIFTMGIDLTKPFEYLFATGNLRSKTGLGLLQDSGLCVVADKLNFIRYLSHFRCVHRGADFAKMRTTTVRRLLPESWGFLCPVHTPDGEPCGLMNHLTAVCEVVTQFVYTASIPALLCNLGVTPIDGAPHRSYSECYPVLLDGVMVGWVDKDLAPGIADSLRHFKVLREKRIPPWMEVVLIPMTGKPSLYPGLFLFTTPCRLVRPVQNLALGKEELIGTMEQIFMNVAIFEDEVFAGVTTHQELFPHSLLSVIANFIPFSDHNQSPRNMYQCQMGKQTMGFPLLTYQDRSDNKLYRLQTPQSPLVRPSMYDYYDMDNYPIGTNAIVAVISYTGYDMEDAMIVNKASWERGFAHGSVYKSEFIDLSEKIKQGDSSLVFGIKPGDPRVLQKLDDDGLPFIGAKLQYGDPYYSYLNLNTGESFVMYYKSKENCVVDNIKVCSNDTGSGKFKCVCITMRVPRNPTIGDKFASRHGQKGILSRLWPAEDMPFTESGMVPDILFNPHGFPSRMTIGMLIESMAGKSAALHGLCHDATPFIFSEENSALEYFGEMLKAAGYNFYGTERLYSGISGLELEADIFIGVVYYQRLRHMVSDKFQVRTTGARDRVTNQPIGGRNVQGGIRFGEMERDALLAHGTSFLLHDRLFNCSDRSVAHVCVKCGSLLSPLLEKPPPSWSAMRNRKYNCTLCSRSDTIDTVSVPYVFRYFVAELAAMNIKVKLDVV
UniProt Q6P1K2: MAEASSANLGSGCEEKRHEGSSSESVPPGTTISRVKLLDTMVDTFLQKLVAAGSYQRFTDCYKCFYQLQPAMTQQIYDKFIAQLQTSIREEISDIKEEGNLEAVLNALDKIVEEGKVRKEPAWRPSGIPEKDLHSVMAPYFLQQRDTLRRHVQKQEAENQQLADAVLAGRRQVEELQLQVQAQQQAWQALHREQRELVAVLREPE
UniProt O15031: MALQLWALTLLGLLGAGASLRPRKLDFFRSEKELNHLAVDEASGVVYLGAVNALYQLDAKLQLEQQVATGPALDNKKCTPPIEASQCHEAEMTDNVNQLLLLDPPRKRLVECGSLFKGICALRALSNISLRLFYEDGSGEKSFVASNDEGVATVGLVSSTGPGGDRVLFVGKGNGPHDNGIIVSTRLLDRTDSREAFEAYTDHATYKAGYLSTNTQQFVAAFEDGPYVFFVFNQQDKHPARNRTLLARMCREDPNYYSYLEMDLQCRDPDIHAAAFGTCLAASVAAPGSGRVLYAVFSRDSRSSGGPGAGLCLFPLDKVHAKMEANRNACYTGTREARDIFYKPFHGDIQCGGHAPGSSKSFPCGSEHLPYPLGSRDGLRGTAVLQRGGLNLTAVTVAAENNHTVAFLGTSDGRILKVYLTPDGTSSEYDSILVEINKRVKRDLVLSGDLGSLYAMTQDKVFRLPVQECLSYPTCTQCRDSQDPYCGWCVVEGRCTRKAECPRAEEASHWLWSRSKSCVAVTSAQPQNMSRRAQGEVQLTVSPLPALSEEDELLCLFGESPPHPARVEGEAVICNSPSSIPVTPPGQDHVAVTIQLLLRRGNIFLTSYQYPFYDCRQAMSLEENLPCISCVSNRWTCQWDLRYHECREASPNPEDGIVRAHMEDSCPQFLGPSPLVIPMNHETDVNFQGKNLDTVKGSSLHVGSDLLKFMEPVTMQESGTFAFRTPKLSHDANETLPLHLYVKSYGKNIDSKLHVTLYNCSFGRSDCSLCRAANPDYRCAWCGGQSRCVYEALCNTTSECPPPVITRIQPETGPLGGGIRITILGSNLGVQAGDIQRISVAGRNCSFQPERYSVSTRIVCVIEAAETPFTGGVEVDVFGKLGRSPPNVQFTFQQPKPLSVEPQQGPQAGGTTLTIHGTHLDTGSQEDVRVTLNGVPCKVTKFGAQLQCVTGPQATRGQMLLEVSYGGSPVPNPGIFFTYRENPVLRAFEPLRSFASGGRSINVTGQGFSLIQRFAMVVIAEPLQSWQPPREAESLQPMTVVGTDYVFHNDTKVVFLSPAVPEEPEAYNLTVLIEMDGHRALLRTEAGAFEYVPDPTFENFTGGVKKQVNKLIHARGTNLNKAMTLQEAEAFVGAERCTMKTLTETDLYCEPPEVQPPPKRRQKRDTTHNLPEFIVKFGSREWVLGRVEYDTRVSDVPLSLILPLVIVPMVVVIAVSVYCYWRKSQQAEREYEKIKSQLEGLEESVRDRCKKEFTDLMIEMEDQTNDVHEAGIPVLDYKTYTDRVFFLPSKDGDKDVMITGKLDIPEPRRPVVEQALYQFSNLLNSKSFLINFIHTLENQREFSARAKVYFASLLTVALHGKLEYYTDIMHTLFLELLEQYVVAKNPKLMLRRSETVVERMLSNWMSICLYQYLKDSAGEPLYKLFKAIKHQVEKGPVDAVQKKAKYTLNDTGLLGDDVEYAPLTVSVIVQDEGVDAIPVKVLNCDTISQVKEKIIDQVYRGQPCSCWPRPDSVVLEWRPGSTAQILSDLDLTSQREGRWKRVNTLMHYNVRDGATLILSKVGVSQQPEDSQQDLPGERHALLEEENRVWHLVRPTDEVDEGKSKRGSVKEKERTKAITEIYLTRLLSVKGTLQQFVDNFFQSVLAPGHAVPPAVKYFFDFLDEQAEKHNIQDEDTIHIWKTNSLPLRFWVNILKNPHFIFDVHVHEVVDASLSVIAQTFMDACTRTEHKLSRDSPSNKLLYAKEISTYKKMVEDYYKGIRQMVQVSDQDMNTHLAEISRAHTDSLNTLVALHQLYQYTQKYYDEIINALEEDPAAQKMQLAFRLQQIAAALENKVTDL
UniProt Q15054: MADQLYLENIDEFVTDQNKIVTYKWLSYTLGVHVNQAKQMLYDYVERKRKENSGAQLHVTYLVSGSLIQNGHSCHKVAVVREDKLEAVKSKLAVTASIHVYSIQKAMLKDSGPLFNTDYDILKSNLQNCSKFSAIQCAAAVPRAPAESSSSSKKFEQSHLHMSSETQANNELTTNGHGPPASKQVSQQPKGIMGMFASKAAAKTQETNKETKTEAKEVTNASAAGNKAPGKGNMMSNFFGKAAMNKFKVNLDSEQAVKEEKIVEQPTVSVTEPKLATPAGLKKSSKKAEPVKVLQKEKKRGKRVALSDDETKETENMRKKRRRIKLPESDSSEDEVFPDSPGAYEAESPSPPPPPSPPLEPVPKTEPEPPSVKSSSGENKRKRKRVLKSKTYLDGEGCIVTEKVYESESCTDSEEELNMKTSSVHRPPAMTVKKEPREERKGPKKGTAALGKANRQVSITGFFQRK
UniProt O95707: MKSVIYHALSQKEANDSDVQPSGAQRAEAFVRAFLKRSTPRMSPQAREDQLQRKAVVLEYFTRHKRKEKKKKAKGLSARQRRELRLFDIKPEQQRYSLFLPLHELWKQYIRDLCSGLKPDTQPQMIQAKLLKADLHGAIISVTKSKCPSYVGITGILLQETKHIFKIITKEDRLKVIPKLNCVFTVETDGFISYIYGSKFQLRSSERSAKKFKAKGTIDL
UniProt Q92871: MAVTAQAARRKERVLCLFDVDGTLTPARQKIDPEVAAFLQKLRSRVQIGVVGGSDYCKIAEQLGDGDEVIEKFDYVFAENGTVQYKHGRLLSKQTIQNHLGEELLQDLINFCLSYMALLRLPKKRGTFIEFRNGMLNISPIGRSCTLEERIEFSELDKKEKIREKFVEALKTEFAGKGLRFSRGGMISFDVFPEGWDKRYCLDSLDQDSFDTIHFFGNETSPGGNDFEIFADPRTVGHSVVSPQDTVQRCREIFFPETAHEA
UniProt Q9H2U2: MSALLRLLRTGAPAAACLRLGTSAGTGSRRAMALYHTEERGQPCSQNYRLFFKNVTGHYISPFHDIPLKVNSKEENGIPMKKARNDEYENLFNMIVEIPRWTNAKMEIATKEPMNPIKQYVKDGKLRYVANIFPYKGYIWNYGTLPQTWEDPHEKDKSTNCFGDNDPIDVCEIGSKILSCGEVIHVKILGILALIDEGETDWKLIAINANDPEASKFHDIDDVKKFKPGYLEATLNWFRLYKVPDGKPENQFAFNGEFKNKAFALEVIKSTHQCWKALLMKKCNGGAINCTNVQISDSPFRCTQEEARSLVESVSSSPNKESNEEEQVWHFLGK
UniProt Q9NQ55: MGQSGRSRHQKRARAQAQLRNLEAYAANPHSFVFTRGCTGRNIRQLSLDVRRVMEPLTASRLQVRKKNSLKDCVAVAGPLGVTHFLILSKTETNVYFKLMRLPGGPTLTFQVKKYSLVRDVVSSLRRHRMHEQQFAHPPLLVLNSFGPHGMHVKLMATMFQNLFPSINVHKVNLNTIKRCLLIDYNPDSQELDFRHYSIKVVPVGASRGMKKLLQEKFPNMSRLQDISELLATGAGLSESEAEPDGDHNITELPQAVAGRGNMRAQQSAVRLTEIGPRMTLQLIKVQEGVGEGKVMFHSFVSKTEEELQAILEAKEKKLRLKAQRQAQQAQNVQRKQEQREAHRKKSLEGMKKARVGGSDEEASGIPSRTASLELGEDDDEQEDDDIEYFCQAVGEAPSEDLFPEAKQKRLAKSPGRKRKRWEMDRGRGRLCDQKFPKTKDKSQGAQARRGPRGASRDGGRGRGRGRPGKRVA

Compound in one assay: C#Cc1cccc(Nc2ncnc3cc(OCCOC)c(OCCOC)cc23)c1 [erlotinib]
Kind of assay: log2 fold change, soluble protein after heating vs DMSO (PISA); higher = thermal stabilisation; K562 lysate, 10 uM; active = over 0.2 and 3.5 SD of the protein, either way, in both replicates (recomputed). In a few lines: (§1)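 Log-two fold change in thermal stability relative to solvent controls is reported from duplicates. For each sample, crude K562 extract from dounce-homogenised pellets in PBS pH 7.4 with 1 mM MgCl2, at 1 mg/mL protein, was treated with 10 μM compound for 30 min. Aliquots heated for 3 min across 48°C-58°C were pooled, brought to 0.5% NP-40 at 4°C and cleared at 21,000xg for 90 min. The supernatant was quantified by TMTpro 16plex LC-MS/MS with channel sums equalised.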
Consider POLD1 (UniProt P28340), for which the log2 fold change was inactive: 0.016.
On the same count and under the same terms, as for POLR1D (UniProt P0DPB6), the figure is inactive: 0.029.
In the case of POLR2G (UniProt P62487), the log2 fold change was inactive: 0.02.
Take PNKD isoform 2 (UniProt Q8N490): the log2 fold change is inactive: -0.003.
With POP1 (UniProt Q99575), the log2 fold change was inactive: -0.023.
As for POLR2B (UniProt P30876), the log2 fold change is inactive: 0.031.
On to POGLUT2 (UniProt Q6UW63), for which the log2 fold change was inactive: 0.029.
On the same count and under the same terms, as for PLXNA1 (UniProt Q9UIW2), the figure is inactive: -0.026; as for PPIB (UniProt P23284), inactive: 0.
For the target POLR1B isoform 3 (UniProt Q9H9Y6), the log2 fold change is inactive: 0.03.
With PMF1 (UniProt Q6P1K2), the log2 fold change is inactive: -0.013.
In the case of PLXNB2 (UniProt O15031), the log2 fold change was inactive: -0.014.
Consider PNKD (UniProt Q8N490), for which the log2 fold change is inactive: -0.005.
Take PPFIA2 (UniProt O75334): the log2 fold change is inactive: 0.019.
In the case of POP5 (UniProt Q969H6), the log2 fold change was inactive: -0.107.
On to POLR2H (UniProt P52434), for which the log2 fold change is inactive: 0.022.
For POLD3 (UniProt Q15054), the log2 fold change is inactive: 0.015.
Consider PMM2 (UniProt O15305), for which the log2 fold change was inactive: -0.063.
Turning to POLD2 (UniProt P49005), the log2 fold change is inactive: -0.019.
As to PNPLA2 (UniProt Q96AD5), the log2 fold change is inactive: -0.019.
Consider PPFIA1 (UniProt Q13136), for which the log2 fold change was inactive: -0.035.
On to POLA2 (UniProt Q14181), for which the log2 fold change was inactive: -0.004.
In the case of POT1 (UniProt Q9NUX5), the log2 fold change was inactive: -0.127.
As for PNISR (UniProt Q8TF01), the log2 fold change is inactive: -0.006.
Consider PMPCA (UniProt Q10713), for which the log2 fold change was inactive: -0.034.
As for POP4 (UniProt O95707), the log2 fold change is inactive: -0.024.
Still for that read-out and setting: the result for PLOD1 (UniProt Q02809) reads inactive: -0.016.
The same measure, in the same setting: as for POLR3B (UniProt Q9NW08), the figure is inactive: 0.019; as for PMM1 (UniProt Q92871), inactive: 0.022.
For the target POLR3H (UniProt Q9Y535), the log2 fold change is inactive: 0.148.
Same read-out and setting: as for POLR3G (UniProt O15318), the figure is inactive: -0.002; as for POGK (UniProt Q9P215), inactive: 0.052; as for PPIA (UniProt P62937), inactive: -0.042.
On to PPA2 (UniProt Q9H2U2), for which the log2 fold change was inactive: -0.016.
As to POSTN (UniProt Q15063), the log2 fold change is inactive: -0.08.
Regarding PPAN isoform 3 (UniProt Q9NQ55), the log2 fold change is inactive: -0.012.
On the same count and under the same terms, the result for PNPLA6 (UniProt Q8IY17) reads inactive: 0.197.
With POLE3 (UniProt Q9NRF9), the log2 fold change is inactive: -0.009.

Compound in another assay: C/C(=N\NC(=O)C1=CC(=CC=C1)S(=O)(=O)N2CCOCC2)/C3=C(C=CC(=C3)Cl)O
The description is as above. In a few lines:
as §1
Turning to POLD1 (UniProt P28340), the log2 fold change was inactive: -0.05.
As to POLR1D (UniProt P0DPB6), the log2 fold change was inactive: 0.053.
On the same count and under the same terms, the result for POLR2G (UniProt P62487) reads inactive: 0.012; that for PNKD isoform 2 (UniProt Q8N490), inactive: -0.072; that for POP1 (UniProt Q99575), inactive: -0.05.
POLR2B (UniProt P30876): the log2 fold change is inactive: 0.019.
On to POGLUT2 (UniProt Q6UW63), for which the log2 fold change is inactive: -0.053.
On the same count and under the same terms, as for PLXNA1 (UniProt Q9UIW2), the figure is inactive: -0.012; as for PPIB (UniProt P23284), inactive: 0.017; as for POLR1B isoform 3 (UniProt Q9H9Y6), inactive: -0.039.
For PMF1 (UniProt Q6P1K2), the log2 fold change was inactive: -0.044.
On to PLXNB2 (UniProt O15031), for which the log2 fold change is inactive: -0.027.
Same read-out and setting: as for PNKD (UniProt Q8N490), the figure is inactive: -0.102; as for PPFIA2 (UniProt O75334), inactive: -0.005; as for POP5 (UniProt Q969H6), inactive: 0.021.
On to POLR2H (UniProt P52434), for which the log2 fold change is inactive: -0.007.
On to POLD3 (UniProt Q15054), for which the log2 fold change was inactive: 0.002.
Still for that read-out and setting: the result for PMM2 (UniProt O15305) reads inactive: 0.043.
Take POLD2 (UniProt P49005): the log2 fold change is inactive: 0.004.
As to PNPLA2 (UniProt Q96AD5), the log2 fold change is inactive: -0.02.
As for PPFIA1 (UniProt Q13136), the log2 fold change was inactive: 0.002.
The same measure, in the same setting: the result for POLA2 (UniProt Q14181) reads inactive: 0.044; that for POT1 (UniProt Q9NUX5), inactive: -0.021.
Regarding PNISR (UniProt Q8TF01), the log2 fold change is inactive: -0.078.
PMPCA (UniProt Q10713): the log2 fold change is inactive: -0.012.
POP4 (UniProt O95707): the log2 fold change is inactive: -0.016.
Regarding PLOD1 (UniProt Q02809), the log2 fold change was inactive: 0.005.
On to POLR3B (UniProt Q9NW08), for which the log2 fold change was inactive: 0.016.
For the target PMM1 (UniProt Q92871), the log2 fold change was inactive: 0.051.
With POLR3H (UniProt Q9Y535), the log2 fold change was inactive: -0.014.
On the same count and under the same terms, the result for POLR3G (UniProt O15318) reads inactive: -0.058; that for POGK (UniProt Q9P215), inactive: 0.053.
Regarding PPIA (UniProt P62937), the log2 fold change is inactive: -0.086.
As for PPA2 (UniProt Q9H2U2), the log2 fold change is inactive: 0.029.
For the target POSTN (UniProt Q15063), the log2 fold change was inactive: -0.053.
Take PPAN isoform 3 (UniProt Q9NQ55): the log2 fold change is inactive: -0.112.
For the target PNPLA6 (UniProt Q8IY17), the log2 fold change was inactive: 0.207.
As for POLE3 (UniProt Q9NRF9), the log2 fold change was inactive: 0.014.

Values taken from the supplement of paper PMC10849652.
